Test results published in paper PMC10163288.
Some of the results follow.

B1: il2ra_site2_2erj_sap_20_mot_493fd54309310d9249ba1f7ad6a52a72_0001_1_000000066_0001_37_51_H_._HHH_b2_08134_af2_0001_0000600016_0000001_0_0001 (protein)
chain: SSSDRELSRRLLEVIFRLLAELNLSIEQMEELFELLEELLRRGVSEEEAEELLREEAEELASSSS
B2: il2ra_site2_2erj_normal_mot_HHH_b2_05976_000000049_0001_1_19_H_._HHH_b2_01889_af2_0001_0000400014_0000001_0 (protein)
chain: SSSSSDQEEAWERVAKLLAELSHVSEEEFEKLLEEAEELAKEANSPALKRYVEYARRDHSSSSSS
B3: il2ra_site1_1z92_sap_14_mot_7cd355b931c3777444dbab6abe2c9f76_0001_000000112_0001_52_65_H_._HEEHE_0071_af2_0002_0000500018_0000001_0_0001_af2pred_0001_af2pred_1 (protein)
chain: SSSSSNDSEFLWEVIEEANKLFKEDPEEAKRLLEEAAERLEEQNNEAAVRQLERFLEAAKSSSSS
B4: il2ra_site1_2b5i_sap_14_mot_HHH_b2_04373_af2_000000166_0001_1_14_H_._HHH_b2_00804_0001_0000600071_0000001_0_0001_af2pred_dldesign_0_af2pred (protein)
chain: DLKAKLEAELAKTGNPYYTKLLKILEAGEAAGDERTEKYVEYLYRRLKKGNPKAVRAIESAAEVV
B5: il2ra_site1_2b5i_normal_mot_HHH_b1_08745_af2_000000166_0001_39_57_H_._HHH_b1_06268_0001_0000500025_0000001_0_af2pred_dldesign_0_af2pred (protein)
chain: SSSSSVGKRLRELLKEAERLRKEGKDEEAKELLEKALELAEEAKMNAFKKIVESALKNLESSSSS
B6: il2ra_site1_2b5i_sap_10_mot_HHH_b1_06833_000000178_0001_1_19_H_._HHH_b2_04591_0001_0000500023_0000001_0_0001_af2pred_dldesign_0_af2pred (protein)
chain: SSSSSDPGYRELVDALIEEARKIEDPLLRRRILTLARLTAKKGKDPELVAKVEAEEAALSSSSSS
B7: il2ra_site1_2b5i_normal_mot_2cbe48e66a1f39b3fed734b245ab0a04_0001_000000015_0001_17_31_H_._HHH_b1_01960_0001_0000800030_0000001_0_af2pred_dldesign_0_af2pred (protein)
chain: SSSSSDPAGRAEVERLIEEAKKLKDFAEASKKLYEALKLARKLGDEELIKKVEEVYKKFSSSSSS
B8: il2ra_site2_3nfp_normal_mot_HHH_b1_07095_000000265_0001_1_20_H_._HHH_b1_00955_0001_0000100022_0000001_0 (protein)
chain: SSSSSELEEEVRKLIEEARELLERGNPEEARRVLAKAADLAFQARNFELFALLNELMELVTSSSS
B9: il2ra_site1_1z92_sap_20_mot_22370d59370c406a0c205a431f537cfa_0001_000000027_0001_1_14_H_._HHH_b2_07892_af2_0001_0000400011_0000001_0_0001_af2pred_0001_af2pred_1 (protein)
chain: SSSSSSERNARIIVRILVELANLSEEQEEELRELAEELVKRGYSFEQIARILHELAMKLASSSSS
B10: il2ra_site1_3nfp_normal_mot_HHH_b1_05462_000000101_0001_1_15_H_._HHH_b2_00323_af2_0001_0000400024_0000001_1 (protein)
chain: SSSSSEEEREVEELLEEAKRLLEEGNFEEAVKVAEEAMKVAARANDDELDELIQEFVQKASSSSS
B11: il2ra_site2_3nfp_normal_mot_HHH_b1_04622_000000276_0001_1_16_H_._HHH_b2_06681_af2_0001_0000900032_0000001_0 (protein)
chain: SSSSDEADLEAYELLEEALELIRNGNPEEAEEVLKEVKELAERHNNRVLRRSVETLEELLSSSSS
B12: il2ra_site1_3nfp_normal_mot_HHH_b2_05589_af2_000000178_0001_1_18_H_._HHH_b1_05025_af2_0001_0000200005_0000001_0 (protein)
chain: SSSSDTEEALRIDREAWEVRRELQERGNEEEAHELSRLAFELLRHGDPRIAEEIEELLKKLSSSS
B13: il2ra_site2_2erj_sap_24_mot_HHH_b1_07975_000000000_0001_41_57_H_._HHH_b1_08466_af2_0001_0000800020_0000001_0_0001_af2pred_0001_1_af2pred_swapped (protein)
chain: SSSSSEEEEELKEFIEELVREFGLSEEVQKKLEALARNALEEGIDEEAIKLFLKLLAEKTSSSSS
B14: il2ra_site2_3nfp_normal_mot_HHH_b2_03679_000000086_0001_41_56_H_._HHH_b2_07687_0001_0000300013_0000001_0 (protein)
chain: SSSSSSDEAEEYVRAAIELAKDAEDPEQARRVLELALKLARSINDPELVEEIEELLEELSSSSSS
B15: il2ra_site1_2b5i_normal_mot_ems_3hM_3687_af2_000000248_0001_45_64_H_._HHH_b1_00736_af2_0001_0000600021_0000001_0_af2pred_dldesign_0_af2pred (protein)
chain: SSSSSSKREEIERLVAEAERLKAAGRYREALKALEEAKKLADELNDEEKVEEIERLAKELSSSSS
B16: il2ra_site2_3nfp_sap_18_mot_HHH_b2_00232_000000252_0001_23_39_H_._HHH_b1_05163_0001_0000100002_0000001_0_0001 (protein)
chain: SDEWEKRLAEMMLEWAEFIAKDISNDELREEAERLVEEAKEIDDPEEARRVAARVALIAAEVLKS
B17: il2ra_site1_3nfp_sap_14_mot_HHH_b1_01231_af2_000000247_0001_40_57_H_._HHH_b2_07537_af2_0001_0000400015_0000001_0_0001_af2pred_0001_af2pred_swapped (protein)
chain: SSSSTELAEELEKLHREIEEAAKEGDEELVRELLERAEEVAKEAGSEHAQRSLEILAKLFSSSSS
B18: il2ra_site1_3nfp_normal_mot_HHH_b2_02220_000000195_0001_38_52_H_._HEEHE_2417_0001_0000100002_0000001_0 (protein)
chain: DEEERVQRIVEWLAKLAGVPSVEVSVHNGEIHVEINGDDRAAKLLEKALEEAARRAGVPIHVEVE
B19: il2ra_site2_2erj_normal_mot_407c3bcab6c065c9e69fee805be8b34b_0001_000000085_0001_19_34_H_._HHH_b2_08156_0001_0000100002_0000001_0_af2pred_0001_1_af2pred_swapped (protein)
chain: SSSSSDEEEVERLLEEAKELRKEGNPEEALAAMLEALEIALRNDNEELERKIRETRLRLHSSSSS
B20: il2ra_site2_2erj_normal_mot_HHH_b1_02713_af2_000000038_0001_1_19_H_._HHH_b2_07325_0001_0000300007_0000001_1 (protein)
chain: SSSSDIEEALIRHALLTAKLLLEEGNPREAEQAVRSAIEYAEFANDEELLEEARKLLEEIGSSSS
B21: il2ra_site1_1z92_sap_17_mot_c66c727fe7b11027095aa3ef302aaf37_0001_000000167_0001_38_52_H_._665b9007e6d0b9979c9b0c82f83b8fcc_0001_0001_0000200023_0000001_0_0001 (protein)
chain: SSSSDSRERIEELAEFLARDIKMTGNPWARRLLELLLEKAEKLGDEELREIIEQLLEELRSSSSS
B22: il2ra_site2_2erj_sap_23_mot_6c2800a769814540b5b47941e710ff28_0001_000000197_0001_35_49_H_._HHH_b1_06377_0001_0000400040_0000001_0_0001 (protein)
chain: SSSSDEVEELLEEAKRLLEEGNPEEALKVLWEAFRLAFERGDWELSREIFELAEEIQRLLTSSSS
B23: il2ra_site1_2b5i_sap_9_mot_ee3637cf074d5336168aa4653724bfa7_0001_1_af2_000000268_0001_37_51_H_._HHH_b2_07145_0001_0000300031_0000001_0_0001_af2pred_dldesign_0_a … (protein)
chain: SSSSDVFEEIERLYNEALRLWREGKKEEAKKLLEKALELAKKAKDEKIAAELEKLLERLKSSSSS
B24: il2ra_site2_3nfp_normal_mot_HHH_b2_01406_000000272_0001_41_55_H_._a98de6a0dfc3acad88c522cc4a821374_0001_0001_0000300020_0000001_0 (protein)
chain: DEEVEELIRELLERNPHNLVAAALALLLEEAQKEGDEELLEELKKIVELFREDPHRAFQLVAELS

The binders below were run against il2ra, P01589 (assay: yeast display titration).

Apparent Kd, inactive:
B1 no binding seen
B2 no binding seen
B3 no binding seen
B4 no binding seen
B5 no binding seen
B6 no binding seen
B7 no binding seen
B8 no binding seen
B9 no binding seen
B10 no binding seen
B11 no binding seen
B12 no binding seen
B13 no binding seen
B14 no binding seen
B15 no binding seen
B16 no binding seen
B17 no binding seen
B18 no binding seen
B19 no binding seen
B20 no binding seen
B21 no binding seen
B22 no binding seen
B23 no binding seen
B24 no binding seen

Fetched one by one from above (2):
Apparent Kd, inactive:
B15 no binding seen
B1 no binding seen
